From publication PMC9551036, “A selective and orally bioavailable VHL-recruiting PROTAC achieves SMARCA2 degradation in vivo” (Nature Communications, 2022)

Experiment: Solubility testing

SMILES	Solubility pH 6.8	Solubility pH 4.5
Cc1ncsc1-c1ccc(CNC(=O)[C@@H]2C[C@@H](O)CN2C(=O)[C@@H](NC(=O)C2(F)CC2)C(C)(C)C)c(OCCOCCOCCN2CCC(c3ccc4c(c3)n(C3CCCC3)c3nc(=O)c5c(Br)cccc5n43)CC2)c1 [compound 21]	86.000 ug/mL, 85.000 ug/mL, 70.000 ug/mL, 80 μg/mL	
Cc1ncsc1-c1ccc(CNC(=O)[C@@H]2C[C@@H](O)CN2C(=O)[C@@H](NC(=O)C2(F)CC2)C(C)(C)C)c(OCCOCCOCCOCCN2CCC(c3ccc4c(c3)n(C3CCCC3)c3nc(=O)c5c(Br)cccc5n43)CC2)c1 [compound 22]	180.000 ug/mL, 140.000 ug/mL, 160 μg/mL	230.000 ug/mL, 220.000 ug/mL, 225 μg/mL
Cc1ncsc1-c1ccc([C@H](COC(C)(C)CN2CCC(c3ccc4c(c3)n(C3CCCC3)c3nc(=O)c5c(Br)cccc5n43)CC2)NC(=O)[C@@H]2C[C@@H](O)CN2C(=O)[C@@H](NC(=O)C2(F)CC2)C(C)(C)C)cc1 [compound 28]		2.000 ug/mL, < 1.000 ug/mL, 3.000 ug/mL

Certain results were filed several times, with different values. This list holds those alone. The source may hold further records. The values listed for one entry differ, and nothing given here explains why; dose, time, organism, isomer or construct need not be as stated for each record.
